Laboratory results taken from PMC10635659.
These are yes or no findings as the source states them, for the method shown. In cells and extracts the contact can be indirect. Some entries that bind do so weakly or less than the wild type.

The chains behind the UniProt entries cited, without tags or fusion partners.
UniProt Q8WUY9: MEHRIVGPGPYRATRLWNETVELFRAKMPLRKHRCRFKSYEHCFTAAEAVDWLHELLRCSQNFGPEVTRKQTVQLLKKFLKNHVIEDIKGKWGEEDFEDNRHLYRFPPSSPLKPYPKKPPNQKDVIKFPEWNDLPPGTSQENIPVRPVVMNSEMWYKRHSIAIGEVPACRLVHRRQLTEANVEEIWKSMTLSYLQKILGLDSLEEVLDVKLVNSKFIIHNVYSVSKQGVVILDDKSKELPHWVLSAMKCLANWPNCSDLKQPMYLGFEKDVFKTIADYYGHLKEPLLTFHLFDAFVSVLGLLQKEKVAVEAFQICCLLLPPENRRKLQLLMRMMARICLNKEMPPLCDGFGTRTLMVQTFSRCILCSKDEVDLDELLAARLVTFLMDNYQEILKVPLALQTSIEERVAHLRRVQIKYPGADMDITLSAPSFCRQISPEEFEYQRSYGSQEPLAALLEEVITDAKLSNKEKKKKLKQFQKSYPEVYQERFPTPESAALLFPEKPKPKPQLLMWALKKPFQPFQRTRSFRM
UniProt P35222: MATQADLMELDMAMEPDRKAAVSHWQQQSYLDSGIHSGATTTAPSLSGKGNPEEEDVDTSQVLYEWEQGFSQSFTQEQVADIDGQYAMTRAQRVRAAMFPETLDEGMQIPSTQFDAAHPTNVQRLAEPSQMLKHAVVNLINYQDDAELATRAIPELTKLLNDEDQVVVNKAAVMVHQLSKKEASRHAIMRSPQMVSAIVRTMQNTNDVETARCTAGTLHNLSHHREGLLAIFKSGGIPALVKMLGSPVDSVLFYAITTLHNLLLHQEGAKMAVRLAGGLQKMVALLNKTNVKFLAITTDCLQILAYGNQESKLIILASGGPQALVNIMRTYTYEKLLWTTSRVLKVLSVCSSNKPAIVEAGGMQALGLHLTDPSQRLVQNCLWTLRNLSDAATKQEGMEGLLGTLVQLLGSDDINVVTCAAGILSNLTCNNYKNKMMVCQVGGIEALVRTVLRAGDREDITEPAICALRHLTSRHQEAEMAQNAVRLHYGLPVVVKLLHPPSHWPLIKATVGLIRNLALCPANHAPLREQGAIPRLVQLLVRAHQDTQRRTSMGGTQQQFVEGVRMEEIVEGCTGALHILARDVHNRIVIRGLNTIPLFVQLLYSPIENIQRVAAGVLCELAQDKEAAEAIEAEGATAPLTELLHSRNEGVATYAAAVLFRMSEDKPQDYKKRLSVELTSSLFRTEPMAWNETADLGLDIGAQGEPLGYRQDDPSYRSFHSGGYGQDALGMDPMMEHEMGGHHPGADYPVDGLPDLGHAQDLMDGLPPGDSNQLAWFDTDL
UniProt P45974: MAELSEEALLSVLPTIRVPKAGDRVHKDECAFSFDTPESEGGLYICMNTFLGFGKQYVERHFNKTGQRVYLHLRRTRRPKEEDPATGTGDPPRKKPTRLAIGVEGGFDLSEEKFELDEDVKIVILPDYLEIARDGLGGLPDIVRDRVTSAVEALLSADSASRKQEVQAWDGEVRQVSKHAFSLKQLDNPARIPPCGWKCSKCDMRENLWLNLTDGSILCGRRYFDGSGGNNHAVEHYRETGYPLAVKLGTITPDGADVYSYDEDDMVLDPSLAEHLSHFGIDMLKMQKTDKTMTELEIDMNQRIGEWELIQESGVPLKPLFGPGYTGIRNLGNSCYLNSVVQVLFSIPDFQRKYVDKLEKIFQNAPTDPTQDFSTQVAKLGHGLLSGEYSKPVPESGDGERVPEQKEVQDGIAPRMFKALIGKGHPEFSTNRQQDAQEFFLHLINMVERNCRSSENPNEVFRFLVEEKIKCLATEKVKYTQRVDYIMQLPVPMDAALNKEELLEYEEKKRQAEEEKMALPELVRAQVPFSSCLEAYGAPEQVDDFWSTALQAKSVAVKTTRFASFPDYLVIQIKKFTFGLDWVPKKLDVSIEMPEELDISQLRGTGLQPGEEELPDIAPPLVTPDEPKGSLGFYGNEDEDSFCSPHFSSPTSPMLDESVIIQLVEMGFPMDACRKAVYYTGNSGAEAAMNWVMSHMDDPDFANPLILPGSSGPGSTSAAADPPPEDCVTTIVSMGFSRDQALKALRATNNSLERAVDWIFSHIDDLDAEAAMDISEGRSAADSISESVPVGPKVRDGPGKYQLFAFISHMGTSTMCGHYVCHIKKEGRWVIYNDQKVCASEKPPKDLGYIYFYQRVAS

Molecular target: FLAG-DEPDC1B (DEP domain-containing protein 1B), expressed in MDA-MB-157 cells (human) (UniProt Q8WUY9)
Assay: co-IP; MDA-MB-157 cells transfected with the tagged plasmids; antibodies against MYC, FLAG, HA or IgG (25 μg/mL); whole cell lysate rotated 1 h at room temperature, washed twice; Western blot

| binding | Substance |
| --- | --- |
| binds | HA-β-catenin, expressed in MDA-MB-157 cells (from UniProt P35222 1-781) |
| binds | MYC-USP5 (ubiquitin-specific protease 5), expressed in MDA-MB-157 cells (from UniProt P45974 1-858) (enzyme) |
